Results as given in patent US9655377, “Methods of controlling fructan synthesis in plants” (COMMONWEALTH SCIENTIFIC AND INDUSTRIAL RESEARCH ORGANISATION).

Test system: T1, TaMYB13-1 (correctly spliced form) (Triticum aestivum)
T1 sequence (limits assumed): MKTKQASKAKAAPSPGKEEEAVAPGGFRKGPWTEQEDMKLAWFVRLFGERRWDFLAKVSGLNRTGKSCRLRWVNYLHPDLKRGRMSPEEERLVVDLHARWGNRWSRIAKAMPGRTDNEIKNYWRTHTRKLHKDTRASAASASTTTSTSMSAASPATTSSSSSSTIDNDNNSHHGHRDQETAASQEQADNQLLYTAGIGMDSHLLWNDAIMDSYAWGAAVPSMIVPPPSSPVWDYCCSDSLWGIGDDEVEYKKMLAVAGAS
Assay: SELEX
Conditions: verified in DNA-binding assay; purified recombinant protein; label: biotin

Row | Sequence | selection result
1 | ACACCTACACCTACTTTAATTAGGTATCGA (double strand) [selected oligonucleotide (FIG. 9, 14th)] | selected
2 | ACACCTGACCTAGAATATTAGGTTGGACGA (double strand) [selected oligonucleotide (FIG. 9, 8th)] | selected
3 | ACCATACCTAACAAATTAGGTACGTCGGGC (double strand) [selected oligonucleotide (FIG. 9, 11th)] | selected
4 | CCGTTAGGTCCTGGCTTCCACTAACGTCTA (double strand) [selected oligonucleotide (FIG. 9, 12th)] | selected
5 | CCTACCCAACTTATTGTTAGGTACACCTAG (double strand) [selected oligonucleotide (FIG. 9, 9th)] | selected
6 | CGAGTTAGGTAACTTTACCTTACGGGCGTA (double strand) [selected oligonucleotide (FIG. 9, 3rd)] | selected
7 | CTGATCATACCAAACTTTATTCGGTAGAGC (double strand) [selected oligonucleotide (FIG. 9, 16th)] | selected
8 | GATGTTGCTATTTTTTGGTTTGTACCTGTC (double strand) [selected oligonucleotide (FIG. 9, 5th)] | selected
9 | GGAAATGAAACCTAACAAAGTTAGGTAAGA (double strand) [selected oligonucleotide (FIG. 9, 10th)] | selected
10 | GGGGTTAGGTACGCCCCACCCACCTACCCG (double strand) [selected oligonucleotide (FIG. 9, 13th)] | selected
11 | TAGGTGTACCTAACAATAAGTTAGGTAGCT (double strand) [selected oligonucleotide (FIG. 9, 4th)] | selected
12 | TATCCAACTTATTTTTAGGTACATTTAGGA (double strand) [selected oligonucleotide (FIG. 9, 17th)] | selected
13 | TCAGATGCGACCTAATAAAGTTAGGTAGGG (double strand) [selected oligonucleotide (FIG. 9, 7th)] | selected
14 | TCGACCGAATAAAGTTTGGTATGATGTGCT (double strand) [selected oligonucleotide (FIG. 9, 2nd)] | selected
15 | TCGGTGTACCTAACAATAAGTTAGGTAGA (double strand) [selected oligonucleotide (FIG. 9, 15th)] | selected
16 | TGTAGGATGGACCGAACAAATTAGGTCATA (double strand) [selected oligonucleotide (FIG. 9, 6th)] | selected
17 | TTACGAGGAAGTTAGGTTCGACCTAACGCA (double strand) [selected oligonucleotide (FIG. 9, 1st)] | selected

Test system: T1, TaMYB13-1 (correctly spliced form) (Triticum aestivum)
Assay: binding assay
Conditions: lower affinity than Ta1-SST S2; assayed oligonucleotide may be longer; purified recombinant protein

Row | Sequence | binding result
18 | GCATTAGGTTC (double strand) [Ta1-SST S1 site] | binds more weakly

Same assay, conditions: relative to SynO2m14; only slight competition against SynO2m14; purified recombinant protein; label: biotin

Row | Sequence | binding result
19 | TCGAGGGAATAAAGTTAGTTATGATGT (double strand) [MYB.Ph3-II] | binds more weakly
20 | TCGAGGGAATTATAACGGTTTTTTGAT (double strand) [MRE2] | binds more weakly

Test system: T2, TaMYB13-1 (correctly spliced form, effector) (Triticum aestivum)
T2 sequence (limits assumed): T1 sequence (limits assumed)
Assay: activity in cells
Conditions: duplicated site added to Ta6-SFT1SXR-deltaS1S2, dramatic increase in transactivation; protein in cells; only the site is given

Row | Sequence | activity on this sequence
21 | TATGTTAGGTAC (double strand) [Hv6-SFT S1 site] | active

For part of these data: Weaker means in comparison with the reference protein, sequence or condition of that experiment. Protein sequences can lack the tags named with them. For part of these data: For at least one entry, the source does not settle the construct or the ends of the probe.
